# Out of some 580,000 compounds screened, about 6,100 (1.1%) were called active. The shares of active, inactive and inconclusive entries below differ from those in the screen. Calls come from the whole dose curve; as a rule, active = well fitted inhibition curve with a large enough effect; inconclusive = small, poorly fitted or top-dose-only effect, or another doubt; inactive = no such curve, though single readings can be large or run the other way. A potency beside an inconclusive call is a rough fit, not a confirmed value.
# By UniProt entry, the sequences of proteins in these tests, tags left out. Where a name states a change or a piece, a line headed by the entry shows the natural chain unless it says otherwise.
# UniProt P18054: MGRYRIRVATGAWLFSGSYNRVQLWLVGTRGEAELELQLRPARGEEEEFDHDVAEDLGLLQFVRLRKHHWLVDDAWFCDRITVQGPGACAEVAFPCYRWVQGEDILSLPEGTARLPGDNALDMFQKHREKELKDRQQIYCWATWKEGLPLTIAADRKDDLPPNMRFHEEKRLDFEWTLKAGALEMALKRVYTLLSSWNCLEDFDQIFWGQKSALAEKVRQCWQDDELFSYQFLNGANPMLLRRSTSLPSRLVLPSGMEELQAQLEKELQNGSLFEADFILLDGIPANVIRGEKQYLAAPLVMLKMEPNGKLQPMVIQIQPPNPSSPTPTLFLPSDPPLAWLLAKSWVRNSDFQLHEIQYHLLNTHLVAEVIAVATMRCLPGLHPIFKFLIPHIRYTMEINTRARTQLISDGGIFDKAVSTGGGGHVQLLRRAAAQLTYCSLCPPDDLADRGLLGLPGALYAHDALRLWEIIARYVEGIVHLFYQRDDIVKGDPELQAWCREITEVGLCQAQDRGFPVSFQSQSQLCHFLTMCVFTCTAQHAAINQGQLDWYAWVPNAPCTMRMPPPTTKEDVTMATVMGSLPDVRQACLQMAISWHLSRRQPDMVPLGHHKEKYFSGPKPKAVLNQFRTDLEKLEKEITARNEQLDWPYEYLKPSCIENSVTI
# Target: Polyunsaturated fatty acid lipoxygenase ALOX12 (Homo sapiens) (UniProt P18054)
# Assay: Primary qHTS assay for inhibitors of human arachidonate 12S-lipoxygenase (ALOX12): Round 2
# Conditions: purified 12hLO, xylenol orange hydroperoxide absorbance; activity change, negative = inhibition: at 108 µM (top of the series) unless noted
# Procedure, shortened: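 Purified human 12hLO (150 nM final) in 25 mM Hepes, 0.01% Triton X-100, pH 7.0 was preincubated 15 min at room temperature with compound. Then 40 uM arachidonic acid was added, 30 min. Hydroperoxide was read by Fe-XO absorbance ratio 573/405 nm.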
# % is set by controls: 0 for no effect and ±100 for the full control effect; potency is the fitted concentration of half-maximal effect.
Compound,Potency,"activity change, negative = inhibition"
C=CC[N+](C)(C)CCCNC(=O)/C=N/O,"inconclusive: 50.1 µM [inhibitor, single point]",
Nc1ccccc1SSc1ccccc1N,"inconclusive: 3.16 µM [inhibitor, full curve, poor fit]",
COc1ccc(-n2cnnc2SCc2ncc(-c3ccccc3)o2)cc1,"inconclusive: 50.1 µM [inhibitor, partial curve, poor fit]",
O=C(OCc1cc(=O)oc2cc3c(cc12)CCC3)C1CCCO1 (stereo unspecified),"inconclusive: 89.1 µM [inhibitor, single point]",
Oc1ccccc1C=Nc1ccc(Cl)c(C(F)(F)F)c1,,inactive: -13.4%
COc1cccc(C(=O)NCCn2ccn3nc(-c4ccc(C)c(C)c4)cc3c2=O)c1OC,"inconclusive: 70.8 µM [inhibitor, partial curve]",
O=c1n(-c2ccc(C(F)(F)F)cc2)nc2n1CCN(S(=O)(=O)c1cccs1)C2,inactive,
Nc1nc(-c2c[nH]c3ccccc23)cs1,"inconclusive: 35.5 µM [inhibitor, partial curve, poor fit]",
O=C(N(Cc1ccc2cc[nH]c2c1)C1CC1)C12CC3CC(CC(C3)C1)C2,"inconclusive: 50.1 µM [inhibitor, single point]",
COc1cc(C2C(C#N)=C(N)N(Nc3ccccc3)C3=C2C(=O)CC(C)(C)C3)ccc1OCc1ccccc1 (stereo unspecified),,inactive: 3.36%
NC(=O)C1(Nc2ccc(-c3ccccc3)cc2)CCCC1,"inconclusive: 89.1 µM [inhibitor, single point]",
CN(C)S(=O)(=O)c1ccc(N2CCCC2)c(C(=O)Nc2ccc(C(N)=O)cc2)c1,"inconclusive: 63.1 µM [inhibitor, partial curve, poor fit]",
CCOC(=O)c1coc(CNC(=O)c2c(C)oc3c2CCCC3)c1,,inactive: -2.46%
O=C(CSc1nc2ccccc2s1)c1ccc2c(c1)OCCO2,,inactive: 2.52%
C=CCNC(=O)c1onc(CSc2cc(C)cc(C)c2)c1C(=O)O,"inconclusive: 89.1 µM [inhibitor, single point]",
CC(O)CSc1nc2c(c(=O)[nH]c(=O)n2C)n1Cc1ccccc1 (stereo unspecified),"inconclusive: 28.2 µM [inhibitor, single point]",
S=c1[nH]nc(C2CCCCC2)n1/N=C/c1ccccc1Cl,"inconclusive: 44.7 µM [inhibitor, partial curve, poor fit]",
Cc1cc(C)cc(OCC(=O)Nc2nc3c(s2)CC(C(C)(C)C)CC3)c1 (stereo unspecified),"inconclusive: 89.1 µM [inhibitor, partial curve, poor fit]",
Cc1cccc(NC(=S)NC(C)(C)CC(C)(C)C)c1,"inconclusive: 44.7 µM [inhibitor, partial curve, poor fit]",
Cc1cc(C)c(NC(=O)CCl)c(C)c1,"inconclusive: 25.1 µM [inhibitor, partial curve, poor fit]",
COc1cc(S(=O)(=O)NCCOC23CC4CC(CC(C4)C2)C3)c(OC)cc1Cl,,inactive: -0.501%
COC(=O)c1cccc(CN2C(=O)C(C)Sc3ccc(C#N)cc32)c1 (stereo unspecified),,inactive: 2.17%
CC1CCCCC1NC(=O)CS(=O)Cc1coc(-c2ccc(F)cc2)n1 (stereo unspecified),,inactive: 70.3%

# Part of the list above, with tabs:
Compound	Potency	activity change, negative = inhibition
O=C(N(Cc1ccc2cc[nH]c2c1)C1CC1)C12CC3CC(CC(C3)C1)C2	inconclusive: 50.1 µM [inhibitor, single point]	
COC(=O)c1cccc(CN2C(=O)C(C)Sc3ccc(C#N)cc32)c1 (stereo unspecified)		inactive: 2.17%

# Going on with the list.

Compound,Potency,"activity change, negative = inhibition"
O=C1CN(Cc2cccc(-c3cccs3)c2)CCN1c1ccc(Cl)nn1,"inconclusive: 10 µM [inhibitor, full curve, poor fit]",
O=C(c1ccccc1)N1CCCN(Cc2ccc3c(c2)OCO3)c2ccccc21,"inconclusive: 15.8 µM [inhibitor, full curve]",
O=C(CSCc1ccc(Br)cc1)Nc1ccc(S(=O)(=O)N2CCOCC2)cc1,,inactive: 8.98%
Cc1nn(-c2ccccc2)c(C)c1/C=N\N1CCN(c2ccc(Cl)cc2)CC1,,inactive: 0%
Cc1cccc(-n2ncc(C(=O)N3CCN(C4CCCCC4)CC3)c2C2CCN(C(=O)OC(C)(C)C)CC2)c1,,inactive: -8.64%
O=C(COc1ccc(Cl)cc1)OCCCC(=O)c1ccc(F)cc1,,inactive: -0.231%
Cc1ccc(C)c(NC(=S)c2nc3ccccc3s2)c1,,inactive: 1.18%
COCc1nc(CCNC(=O)C2CCN(S(=O)(=O)N3CCC(C)CC3)CC2)no1,,inactive: 27.8%
CC(C)(C)c1nc2cc(NC(=O)Cn3cnc4ccccc4c3=O)ccc2o1,,inactive: 32.1%
COc1ccc(/C=C2\Sc3ccc(C(=O)NCc4cccnc4)cc3N(C)C2=O)cc1OC,,inactive: -5.72%
O=C(C=Cc1ccc(Cl)s1)c1ccc(Cl)s1,"inconclusive: 44.7 µM [inhibitor, partial curve, poor fit]",
CCOC(=O)Cc1csc(NC(=O)c2cccc(OC)c2)n1,"inconclusive: 28.2 µM [inhibitor, single point]",
O=C1/C(=C\c2cccc(O)c2)SC(=S)N1Cc1ccccc1,"inconclusive: 100 µM [inhibitor, single point]",
CC(=O)Nc1cccc(-c2cc(NC(C)=O)c3ncc(-c4ccc(F)cc4)n3c2)c1,"inconclusive: 12.6 µM [inhibitor, full curve, poor fit]",
COC(=O)C1CCN(c2nc3ccccc3nc2C(C#N)C(=O)NC2CCCC2)CC1 (stereo unspecified),,inactive: -2.98%
S=C(Cc1ccccc1)N1CCOCC1,,inconclusive: -40.2% [inhibitor]
CC(c1ccccc1)n1c(-c2ccncc2)n[nH]c1=S (stereo unspecified),"inconclusive: 28.2 µM [inhibitor, partial curve, poor fit]",
COc1cccc(OC)c1C(=O)Nc1sc2c(c1C(N)=O)CCCC2,"inconclusive: 50.1 µM [inhibitor, partial curve, poor fit]",
Cc1cc(C)cc(OC(=O)/C=C/c2nc3ccccc3s2)c1,"inconclusive: 12.6 µM [inhibitor, full curve, poor fit]",
Cc1ccc2c(CN3C(=O)C(=O)N(C4CCCC4)C3=O)cc(=O)oc2c1C,"inconclusive: 44.7 µM [inhibitor, partial curve, poor fit]",
COC(=O)c1cc2cc(NS(=O)(=O)c3ccc(C)cc3)ccc2s1,,inactive: -16.4%
COc1ccc(C(=O)NC(=S)NNC(=O)COc2ccccc2)cc1,"inconclusive: 44.7 µM [inhibitor, partial curve, poor fit]",
CCc1ccc2c(c1)-c1ccccc1S(=O)(=O)N2CC(=O)Nc1cccc(C(=O)OC)c1C,"inconclusive: 12.6 µM [inhibitor, full curve, poor fit]",
